These results are taken from the supplement of paper PMC10849652.

Protein sequences, listed by entry. Tags and fused reporters are not part of them. Lines headed by an entry give the natural chain unless they say otherwise; changes in a name come on top.
UniProt Q6UWJ1: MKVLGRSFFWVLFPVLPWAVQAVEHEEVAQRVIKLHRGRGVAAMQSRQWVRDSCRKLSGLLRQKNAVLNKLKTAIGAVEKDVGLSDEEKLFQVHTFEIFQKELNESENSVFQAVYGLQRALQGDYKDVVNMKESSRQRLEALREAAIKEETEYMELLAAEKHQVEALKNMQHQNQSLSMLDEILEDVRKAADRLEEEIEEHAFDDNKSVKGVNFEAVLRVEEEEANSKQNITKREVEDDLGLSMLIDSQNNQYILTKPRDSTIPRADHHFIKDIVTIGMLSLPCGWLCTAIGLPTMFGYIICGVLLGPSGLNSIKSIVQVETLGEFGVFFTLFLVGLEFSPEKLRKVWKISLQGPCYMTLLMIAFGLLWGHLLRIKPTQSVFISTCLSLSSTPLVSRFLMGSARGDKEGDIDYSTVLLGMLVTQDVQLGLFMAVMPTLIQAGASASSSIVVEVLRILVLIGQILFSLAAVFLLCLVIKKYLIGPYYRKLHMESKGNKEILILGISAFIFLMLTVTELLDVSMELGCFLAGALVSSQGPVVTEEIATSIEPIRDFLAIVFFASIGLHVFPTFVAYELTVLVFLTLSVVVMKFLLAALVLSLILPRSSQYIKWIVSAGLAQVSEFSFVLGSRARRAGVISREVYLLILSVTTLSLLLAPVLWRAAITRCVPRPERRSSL
UniProt Q9NX00: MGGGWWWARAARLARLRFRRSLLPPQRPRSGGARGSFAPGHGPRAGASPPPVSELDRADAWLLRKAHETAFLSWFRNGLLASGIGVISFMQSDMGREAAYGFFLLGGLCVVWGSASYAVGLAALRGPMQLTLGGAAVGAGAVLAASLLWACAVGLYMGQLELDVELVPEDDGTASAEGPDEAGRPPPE
UniProt Q9NQ88: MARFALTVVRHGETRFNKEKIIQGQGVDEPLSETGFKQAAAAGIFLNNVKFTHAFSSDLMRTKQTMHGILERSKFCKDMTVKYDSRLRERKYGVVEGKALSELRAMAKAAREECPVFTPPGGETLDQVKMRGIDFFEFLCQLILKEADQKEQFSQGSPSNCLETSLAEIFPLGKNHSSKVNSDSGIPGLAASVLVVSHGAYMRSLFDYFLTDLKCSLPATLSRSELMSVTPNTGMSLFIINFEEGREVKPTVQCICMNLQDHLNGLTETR
UniProt Q9H5L6: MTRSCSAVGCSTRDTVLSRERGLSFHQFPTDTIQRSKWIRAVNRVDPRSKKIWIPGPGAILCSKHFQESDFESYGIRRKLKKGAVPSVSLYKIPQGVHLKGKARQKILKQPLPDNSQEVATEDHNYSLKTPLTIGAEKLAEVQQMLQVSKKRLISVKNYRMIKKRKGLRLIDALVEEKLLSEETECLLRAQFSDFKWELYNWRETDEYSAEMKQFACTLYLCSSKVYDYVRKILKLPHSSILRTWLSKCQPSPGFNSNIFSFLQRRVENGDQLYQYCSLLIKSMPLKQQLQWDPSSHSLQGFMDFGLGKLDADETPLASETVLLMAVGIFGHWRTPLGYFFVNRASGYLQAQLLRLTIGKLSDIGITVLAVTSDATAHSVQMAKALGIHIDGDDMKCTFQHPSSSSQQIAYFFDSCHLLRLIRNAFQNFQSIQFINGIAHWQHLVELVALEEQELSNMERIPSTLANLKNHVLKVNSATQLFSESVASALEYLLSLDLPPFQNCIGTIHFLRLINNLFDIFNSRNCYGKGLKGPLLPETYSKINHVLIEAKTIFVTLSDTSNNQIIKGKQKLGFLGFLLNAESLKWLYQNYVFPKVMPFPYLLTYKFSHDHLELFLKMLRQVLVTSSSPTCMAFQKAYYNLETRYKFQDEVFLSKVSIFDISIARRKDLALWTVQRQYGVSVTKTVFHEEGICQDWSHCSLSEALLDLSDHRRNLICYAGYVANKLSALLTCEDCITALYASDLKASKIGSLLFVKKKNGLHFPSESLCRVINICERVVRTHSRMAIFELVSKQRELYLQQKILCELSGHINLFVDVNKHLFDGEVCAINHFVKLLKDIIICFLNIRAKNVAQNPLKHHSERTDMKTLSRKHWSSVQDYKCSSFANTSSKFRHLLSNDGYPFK
UniProt Q9NS93: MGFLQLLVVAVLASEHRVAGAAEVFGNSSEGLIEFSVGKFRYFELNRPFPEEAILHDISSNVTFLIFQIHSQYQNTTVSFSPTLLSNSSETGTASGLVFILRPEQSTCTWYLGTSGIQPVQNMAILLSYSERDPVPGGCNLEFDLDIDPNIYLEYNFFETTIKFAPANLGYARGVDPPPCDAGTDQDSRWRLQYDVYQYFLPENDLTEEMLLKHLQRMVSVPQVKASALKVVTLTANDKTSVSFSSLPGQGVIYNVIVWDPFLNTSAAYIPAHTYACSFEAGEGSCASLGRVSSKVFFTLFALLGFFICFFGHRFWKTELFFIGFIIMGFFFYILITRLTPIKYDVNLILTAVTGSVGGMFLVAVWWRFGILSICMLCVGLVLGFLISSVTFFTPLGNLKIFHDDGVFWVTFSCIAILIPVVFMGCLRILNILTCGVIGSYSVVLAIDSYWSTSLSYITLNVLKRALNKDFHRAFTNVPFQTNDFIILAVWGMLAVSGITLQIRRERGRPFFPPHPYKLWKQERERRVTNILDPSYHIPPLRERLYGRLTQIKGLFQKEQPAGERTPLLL
UniProt A0PK00: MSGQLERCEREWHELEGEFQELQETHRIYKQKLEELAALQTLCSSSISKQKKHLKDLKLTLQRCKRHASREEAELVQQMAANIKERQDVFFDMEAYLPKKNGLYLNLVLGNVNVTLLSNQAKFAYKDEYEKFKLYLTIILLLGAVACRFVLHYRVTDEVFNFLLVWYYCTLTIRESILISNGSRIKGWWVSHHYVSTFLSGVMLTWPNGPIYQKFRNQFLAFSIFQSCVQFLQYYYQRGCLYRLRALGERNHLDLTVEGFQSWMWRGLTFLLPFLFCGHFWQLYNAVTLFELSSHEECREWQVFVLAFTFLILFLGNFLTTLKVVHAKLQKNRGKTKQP
UniProt Q7Z403: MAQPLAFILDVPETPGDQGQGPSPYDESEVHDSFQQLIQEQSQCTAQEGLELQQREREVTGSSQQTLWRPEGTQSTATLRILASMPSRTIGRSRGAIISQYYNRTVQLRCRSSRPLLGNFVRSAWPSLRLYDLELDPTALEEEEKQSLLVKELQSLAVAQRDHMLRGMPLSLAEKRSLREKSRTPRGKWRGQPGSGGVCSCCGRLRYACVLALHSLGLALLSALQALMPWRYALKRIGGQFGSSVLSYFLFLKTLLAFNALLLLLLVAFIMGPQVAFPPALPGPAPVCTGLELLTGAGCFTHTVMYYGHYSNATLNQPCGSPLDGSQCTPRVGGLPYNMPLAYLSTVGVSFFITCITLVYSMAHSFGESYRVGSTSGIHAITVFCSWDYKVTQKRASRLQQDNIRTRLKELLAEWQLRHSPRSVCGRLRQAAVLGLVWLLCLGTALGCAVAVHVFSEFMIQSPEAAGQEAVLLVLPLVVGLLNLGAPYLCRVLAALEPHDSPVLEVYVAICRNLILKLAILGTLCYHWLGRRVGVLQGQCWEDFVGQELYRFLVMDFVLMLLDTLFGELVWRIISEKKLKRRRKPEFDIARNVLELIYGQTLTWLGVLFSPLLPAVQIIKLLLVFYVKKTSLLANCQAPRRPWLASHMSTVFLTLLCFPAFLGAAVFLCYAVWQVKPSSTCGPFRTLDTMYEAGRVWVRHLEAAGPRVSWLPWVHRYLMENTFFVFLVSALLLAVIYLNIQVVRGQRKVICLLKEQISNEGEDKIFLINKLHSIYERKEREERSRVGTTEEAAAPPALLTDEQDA
UniProt Q96EK4, whole entry, looked up: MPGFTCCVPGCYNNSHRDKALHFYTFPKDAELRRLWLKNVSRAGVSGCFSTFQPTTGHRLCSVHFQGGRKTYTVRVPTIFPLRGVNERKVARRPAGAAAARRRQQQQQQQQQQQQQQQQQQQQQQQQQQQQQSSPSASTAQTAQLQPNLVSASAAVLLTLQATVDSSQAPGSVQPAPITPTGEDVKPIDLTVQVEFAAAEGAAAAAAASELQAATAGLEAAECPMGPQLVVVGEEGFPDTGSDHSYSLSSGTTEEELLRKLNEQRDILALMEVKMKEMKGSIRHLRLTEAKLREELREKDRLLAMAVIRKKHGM
UniProt Q3LXA3: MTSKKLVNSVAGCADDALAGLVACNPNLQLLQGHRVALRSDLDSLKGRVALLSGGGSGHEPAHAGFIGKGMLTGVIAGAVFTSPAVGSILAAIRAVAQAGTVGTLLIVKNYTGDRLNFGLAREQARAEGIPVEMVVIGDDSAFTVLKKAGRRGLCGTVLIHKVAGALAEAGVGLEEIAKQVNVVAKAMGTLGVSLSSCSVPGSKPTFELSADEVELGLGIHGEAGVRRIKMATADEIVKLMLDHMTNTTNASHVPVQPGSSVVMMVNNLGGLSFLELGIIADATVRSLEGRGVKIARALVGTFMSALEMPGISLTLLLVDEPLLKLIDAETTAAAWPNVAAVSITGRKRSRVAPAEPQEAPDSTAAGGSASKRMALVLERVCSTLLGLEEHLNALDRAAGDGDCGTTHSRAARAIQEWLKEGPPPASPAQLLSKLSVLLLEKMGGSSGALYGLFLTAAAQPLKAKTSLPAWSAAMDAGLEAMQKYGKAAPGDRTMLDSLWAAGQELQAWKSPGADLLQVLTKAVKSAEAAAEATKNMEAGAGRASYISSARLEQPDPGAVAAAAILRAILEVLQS
UniProt Q9P0S9: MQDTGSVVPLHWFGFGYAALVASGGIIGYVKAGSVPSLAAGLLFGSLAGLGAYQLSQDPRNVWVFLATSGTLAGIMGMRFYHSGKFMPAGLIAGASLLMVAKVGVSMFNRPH
UniProt P62072: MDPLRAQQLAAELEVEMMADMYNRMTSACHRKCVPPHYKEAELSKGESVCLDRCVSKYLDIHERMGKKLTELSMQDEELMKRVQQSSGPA
UniProt Q7Z7H5: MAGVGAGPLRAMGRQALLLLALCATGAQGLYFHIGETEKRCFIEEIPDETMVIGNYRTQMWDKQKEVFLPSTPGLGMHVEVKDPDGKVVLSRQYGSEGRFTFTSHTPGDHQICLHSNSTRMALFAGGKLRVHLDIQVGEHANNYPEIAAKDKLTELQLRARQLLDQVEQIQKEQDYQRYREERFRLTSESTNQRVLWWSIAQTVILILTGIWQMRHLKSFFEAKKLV
UniProt O15321, whole entry, looked up: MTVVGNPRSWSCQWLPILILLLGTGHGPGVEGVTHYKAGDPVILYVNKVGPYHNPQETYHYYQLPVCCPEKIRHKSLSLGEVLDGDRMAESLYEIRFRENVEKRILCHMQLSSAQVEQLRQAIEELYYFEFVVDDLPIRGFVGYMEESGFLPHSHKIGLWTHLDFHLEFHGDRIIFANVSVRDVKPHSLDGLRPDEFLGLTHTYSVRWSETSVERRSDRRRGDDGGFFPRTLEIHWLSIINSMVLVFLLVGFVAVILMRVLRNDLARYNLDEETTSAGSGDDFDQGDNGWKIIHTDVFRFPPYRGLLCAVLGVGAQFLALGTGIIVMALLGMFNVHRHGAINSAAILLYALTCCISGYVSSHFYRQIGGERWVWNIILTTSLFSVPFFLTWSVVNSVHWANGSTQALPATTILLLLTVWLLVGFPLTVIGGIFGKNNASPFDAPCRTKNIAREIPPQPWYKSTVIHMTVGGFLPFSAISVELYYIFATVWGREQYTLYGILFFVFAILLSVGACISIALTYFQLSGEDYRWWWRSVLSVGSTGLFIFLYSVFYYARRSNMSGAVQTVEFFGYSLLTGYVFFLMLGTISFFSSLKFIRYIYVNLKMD
UniProt O75204: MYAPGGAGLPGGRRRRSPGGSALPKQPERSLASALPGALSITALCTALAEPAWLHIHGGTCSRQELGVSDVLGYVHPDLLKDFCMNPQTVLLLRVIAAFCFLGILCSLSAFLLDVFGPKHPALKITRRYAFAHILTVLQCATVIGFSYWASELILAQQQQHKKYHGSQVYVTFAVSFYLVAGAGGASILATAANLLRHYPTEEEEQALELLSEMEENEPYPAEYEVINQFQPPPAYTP
UniProt P29401: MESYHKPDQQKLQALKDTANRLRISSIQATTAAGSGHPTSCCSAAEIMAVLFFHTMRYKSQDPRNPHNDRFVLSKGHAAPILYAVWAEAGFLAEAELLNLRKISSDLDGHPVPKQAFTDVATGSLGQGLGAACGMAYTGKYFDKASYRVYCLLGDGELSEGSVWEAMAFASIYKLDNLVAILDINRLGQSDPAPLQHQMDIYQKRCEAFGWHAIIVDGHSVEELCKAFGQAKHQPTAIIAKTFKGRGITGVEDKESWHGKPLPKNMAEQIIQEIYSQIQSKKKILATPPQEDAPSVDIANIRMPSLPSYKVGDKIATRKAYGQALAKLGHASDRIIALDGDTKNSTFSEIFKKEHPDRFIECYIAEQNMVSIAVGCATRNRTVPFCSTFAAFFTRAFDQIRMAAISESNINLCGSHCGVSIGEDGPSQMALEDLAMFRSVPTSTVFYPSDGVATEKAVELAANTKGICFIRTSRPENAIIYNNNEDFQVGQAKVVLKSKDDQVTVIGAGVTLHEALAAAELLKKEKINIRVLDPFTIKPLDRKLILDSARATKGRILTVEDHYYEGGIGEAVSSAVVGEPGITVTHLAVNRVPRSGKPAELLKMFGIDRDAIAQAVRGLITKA

The other results are listed elsewhere or left out.

Compound in one test: CCCS(=O)(=O)Nc1ccc(F)c(C(=O)c2c[nH]c3ncc(-c4ccc(Cl)cc4)cc23)c1F [vemurafenib]
Put plainly: log2 fold change, soluble protein after heating vs DMSO (PISA); higher = thermal stabilisation; K562 lysate, 10 uM; active = over 0.2 and 3.5 SD of the protein, either way, in both replicates (recomputed). The gist of the method:
(§1)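 The values are log-two fold changes in thermal stability compared with solvent controls and come from duplicates. They were obtained by TMTpro 16plex LC-MS/MS, with channel sums equalised, on the supernatant after 21,000xg for 90 min. That supernatant came from crude K562 extract at 1 mg/mL protein treated with 10 μM compound for 30 min, heated for 3 min across 48°C-58°C, pooled and brought to 0.5% NP-40 at 4°C.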
As to TMCO3 (UniProt Q6UWJ1), the log2 fold change is inactive: 0.038. On to TMEM160 (UniProt Q9NX00), for which the log2 fold change was inactive: 0.237.

Turning to TIGAR (UniProt Q9NQ88), the log2 fold change was inactive: -0.04. As to TMC1 (UniProt Q8TDI8), the log2 fold change was inactive: 0.089. Same read-out and setting: the value for TIMM44 (UniProt O43615) was inactive: -0.035; that for TK2 isoform 6 (UniProt O00142) was inactive: -0.074; that for TK1 (UniProt K7ERV3) was inactive: -0.001. THAP9 (UniProt Q9H5L6): the log2 fold change was inactive: 0.199. TIMM13 (UniProt Q9Y5L4): the log2 fold change is inactive: -0.027.

On to TIMM10B (UniProt Q9Y5J6), for which the log2 fold change is inactive: -0.052. Consider TM7SF3 (UniProt Q9NS93), for which the log2 fold change is inactive: -0.006.

In the case of TMED1 (UniProt Q13445), the log2 fold change was inactive: 0.01. The same measure, in the same setting: with TMEM123 (UniProt Q8N131) the figure was inactive: -0.144; with TIMM21 (UniProt Q9BVV7), inactive: 0.033; with TMEM120B (UniProt A0PK00), inactive: -0.217. Regarding TMC6 (UniProt Q7Z403), the log2 fold change is inactive: -0.151.

Consider TM6SF1 (UniProt Q9BZW5), for which the log2 fold change was inactive: 0.052. For the target THAP11 (UniProt Q96EK4), the log2 fold change is inactive: 0.029.

As for THOC7 (UniProt Q6I9Y2), the log2 fold change is inactive: -0.038.

In the case of TKFC (UniProt Q3LXA3), the log2 fold change was inactive: -0.025. Same read-out and setting: the value for TMEM181 (UniProt Q9P2C4) was inactive: 0.056. As for TK1 (UniProt P04183), the log2 fold change is inactive: 0.022.

Consider TMEM167A (UniProt Q8TBQ9), for which the log2 fold change was inactive: -0.009. Same read-out and setting: with TMEM104 (UniProt Q8NE00) the figure was inactive: 0.063; with TMEM14C (UniProt Q9P0S9), inactive: 0.027. As to TJP1 (UniProt G3V1L9), the log2 fold change is inactive: 0.076. Still for that read-out and setting: the value for TMEM161B (UniProt Q8NDZ6) was inactive: -0.112; that for TMEM143 (UniProt Q96AN5) was inactive: -0.147. Same read-out and setting: with TLR9 isoform 4 (UniProt Q9NR96) the figure was inactive: -0.043; with TMEM177 (UniProt Q53S58), inactive: -0.057; with TGM2 (UniProt P21980), inactive: 0.016.

With TIMM10 (UniProt P62072), the log2 fold change is inactive: -0.092.

With TMEM141 (UniProt Q96I45), the log2 fold change was inactive: 0.036. In the case of TMED4 (UniProt Q7Z7H5), the log2 fold change is inactive: -0.035. On the same count and under the same terms, with TM9SF1 (UniProt O15321) the figure was inactive: 0.035. Same read-out and setting: with TMEM167B (UniProt Q9NRX6) the figure was inactive: 0.058. For TMEM127 (UniProt O75204), the log2 fold change was inactive: 0.13. Still for that read-out and setting: with TKT isoform 2 (UniProt P29401) the figure was inactive: -0.002; with TGOLN2 isoform 7 (UniProt O43493), inactive: 0.02.

As for TIAL1 isoform 2 (UniProt Q01085), the log2 fold change is inactive: -0.009.

Compound in a further test: CCCS(=O)(=O)Nc1ccc(F)c(C(=O)c2c[nH]c3ncc(Cl)cc23)c1F
The description is as above. The method, boiled down:
as §1
Take TMEM160 (UniProt Q9NX00): the log2 fold change was inactive: 0.091. Same read-out and setting: with TMC1 (UniProt Q8TDI8) the figure was inactive: -0.02; with TIMM44 (UniProt O43615), inactive: -0.017; with TK2 isoform 6 (UniProt O00142), inactive: -0.053. Turning to THAP9 (UniProt Q9H5L6), the log2 fold change is inactive: 0.07. Regarding TIMM13 (UniProt Q9Y5L4), the log2 fold change is inactive: -0.026. Still for that read-out and setting: with TMED1 (UniProt Q13445) the figure was inactive: 0. Consider TMEM123 (UniProt Q8N131), for which the log2 fold change is inactive: 0.022. Same read-out and setting: with TIMM21 (UniProt Q9BVV7) the figure was inactive: 0.042; with TMEM120B (UniProt A0PK00), inactive: 0.123. On the same count and under the same terms, with TMC6 (UniProt Q7Z403) the figure was inactive: 0.068; with TM6SF1 (UniProt Q9BZW5), inactive: 0. Still for that read-out and setting: with THAP11 (UniProt Q96EK4) the figure was inactive: 0.048; with THOC7 (UniProt Q6I9Y2), inactive: 0.021. For the target TKFC (UniProt Q3LXA3), the log2 fold change was inactive: -0.007.

TMEM181 (UniProt Q9P2C4): the log2 fold change is inactive: 0.015. On to TK1 (UniProt P04183), for which the log2 fold change was inactive: 0.013. The same measure, in the same setting: with TMEM167A (UniProt Q8TBQ9) the figure was inactive: 0.049; with TMEM14C (UniProt Q9P0S9), inactive: 0.087; with TMEM161B (UniProt Q8NDZ6), inactive: -0.076. Still for that read-out and setting: the value for TMEM143 (UniProt Q96AN5) was inactive: -0.032; that for TLR9 isoform 4 (UniProt Q9NR96) was inactive: 0.006. The same measure, in the same setting: with TMEM177 (UniProt Q53S58) the figure was inactive: 0.011. For the target TGM2 (UniProt P21980), the log2 fold change was inactive: -0.015. TIMM10 (UniProt P62072): the log2 fold change is inactive: 0.018.

On to TMEM141 (UniProt Q96I45), for which the log2 fold change is inactive: 0.078. Still for that read-out and setting: the value for TMED4 (UniProt Q7Z7H5) was inactive: 0.006; that for TM9SF1 (UniProt O15321) was inactive: -0.072. As to TMEM167B (UniProt Q9NRX6), the log2 fold change is inactive: -0.057. The same measure, in the same setting: the value for TKT isoform 2 (UniProt P29401) was inactive: 0.005.

On to TGOLN2 isoform 7 (UniProt O43493), for which the log2 fold change is inactive: 0.023. The same measure, in the same setting: the value for TIAL1 isoform 2 (UniProt Q01085) was inactive: 0.014.
